This is one part of the list.
Assays:
Assay in all cases: glycan array binding signal (z-score within array); higher = stronger binding
Conditions in all cases: glycan notation: IUPAC condensed, linker removed
Fuc(a1-2)Gal = target: Fuc(a1-2)Gal
How it was run: (§1)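 Arrays were curated from the Consortium for Functional Glycomics database, 3228 in total, and kept only where the protein sequence was available. Binding is expressed as a within-array Z-score. This score was averaged across arrays of the same protein sequence at different concentrations or buffers and across linkers, and negative values can be read as non-binding.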

Fuc(a1-2)Gal(b1-3)GalNAc = target: Fuc(a1-2)Gal(b1-3)GalNAc
How it was run: as §1

[1] = target: Fuc(a1-2)Gal(b1-3)GalNAc(a1-3)[Fuc(a1-2)]Gal(b1-4)Glc
How it was run: as §1

[2] = target: Fuc(a1-2)Gal(b1-3)GalNAc(a1-3)[Fuc(a1-2)]Gal(b1-4)GlcNAc
How it was run: as §1

[3] = target: Fuc(a1-2)Gal(b1-3)GalNAc(b1-3)Gal
How it was run: as §1

[4] = target: Fuc(a1-2)Gal(b1-3)GalNAc(b1-3)Gal(a1-4)Gal(b1-4)Glc
How it was run: as §1

[5] = target: Fuc(a1-2)Gal(b1-3)GalNAc(b1-4)[Neu5Ac(a2-3)]Gal(b1-4)Glc
How it was run: as §1

Fuc(a1-2)Gal(b1-3)GlcNAc = target: Fuc(a1-2)Gal(b1-3)GlcNAc
How it was run: as §1

[6] = target: Fuc(a1-2)Gal(b1-3)GlcNAc(b1-2)Man(a1-3)[Fuc(a1-2)Gal(b1-3)GlcNAc(b1-2)Man(a1-6)]Man(b1-4)GlcNAc(b1-4)GlcNAc
How it was run: as §1

[7] = target: Fuc(a1-2)Gal(b1-3)GlcNAc(b1-2)Man(a1-3)[Fuc(a1-2)Gal(b1-3)GlcNAc(b1-2)Man(a1-6)]Man(b1-4)GlcNAc(b1-4)[Fuc(a1-6)]GlcNAc
How it was run: as §1

[8] = target: Fuc(a1-2)Gal(b1-3)GlcNAc(b1-3)Gal(b1-4)Glc
How it was run: as §1

[9] = target: Fuc(a1-2)Gal(b1-3)GlcNAc(b1-3)GalNAc
How it was run: as §1

[10] = target: Fuc(a1-2)Gal(b1-3)GlcNAc(b1-3)[Fuc(a1-2)Gal(b1-3)GlcNAc(b1-6)]GalNAc
How it was run: as §1

[11] = target: Fuc(a1-2)Gal(b1-3)GlcNAc(b1-3)[Gal(b1-4)GlcNAc(b1-6)]Gal(b1-4)Glc
How it was run: as §1

[12] = target: Fuc(a1-2)Gal(b1-3)GlcNAc(b1-3)[Neu5Ac(a2-6)Gal(b1-4)GlcNAc(b1-6)]Gal(b1-4)Glc
How it was run: as §1

[13] = target: Fuc(a1-2)Gal(b1-3)GlcNAc6S
How it was run: as §1

[14] = target: Fuc(a1-2)Gal(b1-3)[Fuc(a1-4)]GlcNAc
How it was run: as §1

[15] = target: Fuc(a1-2)Gal(b1-3)[Fuc(a1-4)]GlcNAc(b1-2)Man(a1-3)[Fuc(a1-2)Gal(b1-3)[Fuc(a1-4)]GlcNAc(b1-2)Man(a1-3)]Man(b1-4)GlcNAc(b1-4)GlcNAc
How it was run: as §1

[16] = target: Fuc(a1-2)Gal(b1-3)[Fuc(a1-4)]GlcNAc(b1-2)Man(a1-3)[Fuc(a1-2)Gal(b1-3)[Fuc(a1-4)]GlcNAc(b1-2)Man(a1-6)]Man(b1-4)GlcNAc(b1-4)[Fuc(a1-6)]GlcNAc(b1-4)[Fuc(a1-6)]GlcNAc
How it was run: as §1

[17] = target: Fuc(a1-2)Gal(b1-3)[Fuc(a1-4)]GlcNAc(b1-3)[Fuc(a1-3)[Gal(b1-4)]GlcNAc(b1-6)]Gal(b1-4)Glc
How it was run: as §1

[18] = target: Fuc(a1-2)Gal(b1-3)[Fuc(a1-4)]GlcNAc(b1-3)[Gal(b1-4)GlcNAc(b1-6)]Gal(b1-4)Glc
How it was run: as §1

Fuc(a1-2)Gal(b1-4)Glc = target: Fuc(a1-2)Gal(b1-4)Glc
How it was run: as §1

Fuc(a1-2)Gal(b1-4)Glc6S = target: Fuc(a1-2)Gal(b1-4)Glc6S
How it was run: as §1

Fuc(a1-2)Gal(b1-4)GlcNAc = target: Fuc(a1-2)Gal(b1-4)GlcNAc
How it was run: as §1

[19] = target: Fuc(a1-2)Gal(b1-4)GlcNAc(b1-2)Man
How it was run: as §1

[20] = target: Fuc(a1-2)Gal(b1-4)GlcNAc(b1-2)Man(a1-3)[Fuc(a1-2)Gal(b1-4)GlcNAc(b1-2)Man(a1-6)]Man(b1-4)GlcNAc(b1-4)GlcNAc
How it was run: as §1

[21] = target: Fuc(a1-2)Gal(b1-4)GlcNAc(b1-2)Man(a1-3)[Fuc(a1-2)Gal(b1-4)GlcNAc(b1-2)Man(a1-6)]Man(b1-4)GlcNAc(b1-4)[Fuc(a1-6)]GlcNAc
How it was run: as §1

[22] = target: Fuc(a1-2)Gal(b1-4)GlcNAc(b1-2)[Fuc(a1-2)Gal(b1-4)GlcNAc(b1-4)]Man(a1-3)[Fuc(a1-2)Gal(b1-4)GlcNAc(b1-2)Man(a1-6)]Man(b1-4)GlcNAc(b1-4)GlcNAc
How it was run: as §1

[23] = target: Fuc(a1-2)Gal(b1-4)GlcNAc(b1-3)Gal(b1-4)GlcNAc
How it was run: as §1

[24] = target: Fuc(a1-2)Gal(b1-4)GlcNAc(b1-3)Gal(b1-4)GlcNAc(b1-2)Man(a1-3)[Fuc(a1-2)Gal(b1-4)GlcNAc(b1-3)Gal(b1-4)GlcNAc(b1-2)Man(a1-6)]Man(b1-4)GlcNAc(b1-4)GlcNAc
How it was run: as §1

B1: SJCP1084 (Schistosoma japonicum) (protein)
chain: MRIINLVIISTALLLINLLQTKSQANGEDTKNGTPDDPGLTKSTELKVEVQALLKDKKTNMRVKWNENLLDNTKPEYHNLRDEACELLLQIVRSVVPLSQDDGECKDVTFTKYVVGTKDGAVNVKLTITFKDSVAINQKPMDLKLKLENDFKNLQSESTLKATKPTFTVKVEKRLIPISKPQTTPPTTAKNDASKENVGDIGGEDSTVPTAAPATAASANEEKDEGDKDNKDSQHPNVLTSNVNDRNLIIALVALMILAIGVALTAAVKQR
glycan array binding signal (z-score) (Fuc(a1-2)Gal): 0.098 | glycan array binding signal (z-score) (Fuc(a1-2)Gal(b1-3)GalNAc): 0.661 | glycan array binding signal (z-score) [1]: -0.225 | glycan array binding signal (z-score) [2]: -1.08 | glycan array binding signal (z-score) [3]: 0.716 | glycan array binding signal (z-score) [4]: 0.9 | glycan array binding signal (z-score) [5]: 0.189 | glycan array binding signal (z-score) (Fuc(a1-2)Gal(b1-3)GlcNAc): 0.181 | glycan array binding signal (z-score) [6]: -0.858 | glycan array binding signal (z-score) [7]: 0.481 | glycan array binding signal (z-score) [8]: -0.717 | glycan array binding signal (z-score) [9]: 0.203 | glycan array binding signal (z-score) [10]: -0.542 | glycan array binding signal (z-score) [11]: -0.827 | glycan array binding signal (z-score) [12]: -0.608 | glycan array binding signal (z-score) [13]: -0.713 | glycan array binding signal (z-score) [14]: 0.425 | glycan array binding signal (z-score) [15]: 0.697 | glycan array binding signal (z-score) [16]: -0.159 | glycan array binding signal (z-score) [17]: -0.831 | glycan array binding signal (z-score) [18]: 0.951 | glycan array binding signal (z-score) (Fuc(a1-2)Gal(b1-4)Glc): 0.115 | glycan array binding signal (z-score) (Fuc(a1-2)Gal(b1-4)Glc6S): -0.935 | glycan array binding signal (z-score) (Fuc(a1-2)Gal(b1-4)GlcNAc): 2.5 | glycan array binding signal (z-score) [19]: 1.24 | glycan array binding signal (z-score) [20]: 0.358 | glycan array binding signal (z-score) [21]: 0.508 | glycan array binding signal (z-score) [22]: 1.04 | glycan array binding signal (z-score) [23]: -1.18 | glycan array binding signal (z-score) [24]: 4.99
